These are yes or no findings as the source states them, for the method shown. In cells and extracts the contact can be indirect. Binding can be weak; no strength is given.
Target: Rad6-FLAG (S. cerevisiae) (UniProt P06104)
Experiment: co-IP

By UniProt entry, the sequences of proteins in these tests, tags left out. Where a name states a change or a piece, a line headed by the entry shows the natural chain unless it says otherwise.
UniProt P06104: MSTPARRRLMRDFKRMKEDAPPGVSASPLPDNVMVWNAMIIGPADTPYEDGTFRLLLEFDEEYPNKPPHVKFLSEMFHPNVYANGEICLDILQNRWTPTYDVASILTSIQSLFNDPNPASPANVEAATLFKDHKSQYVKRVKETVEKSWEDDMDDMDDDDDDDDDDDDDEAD
UniProt P0C0W9: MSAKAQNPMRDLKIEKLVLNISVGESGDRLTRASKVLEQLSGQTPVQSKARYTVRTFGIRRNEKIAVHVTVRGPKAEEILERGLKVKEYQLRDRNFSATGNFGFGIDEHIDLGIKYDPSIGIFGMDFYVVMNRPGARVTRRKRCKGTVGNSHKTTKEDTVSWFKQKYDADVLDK

- binding: binds
Substance: ribosomal protein uL5 (from UniProt P0C0W9)

From doi:10.1101/2021.04.22.439970
